These are yes or no findings as the source states them, for the method shown. Some binding calls cover weakened binding; strength is not graded here.
Molecular target: T1, C-terminal domain of mouse α-dystrobrevin (amino acids 461-554) (mouse) (UniProt Q9D2N4)
T1 sequence: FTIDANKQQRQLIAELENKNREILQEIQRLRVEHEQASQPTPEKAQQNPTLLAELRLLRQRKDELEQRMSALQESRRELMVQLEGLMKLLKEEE
Assay: two-hybrid; pBHA-based bait and pGAD10-based prey constructs co-transformed into L40 S. cerevisiae; activation of LacZ (X-gal hydrolysis) and HIS3 (growth on histidine-depleted minimal medium) reporter genes

binding: binds
B1: C-terminal domain of mouse dystrophin (amino acids 3484-3600) (domain or fragment, UniProt P11531 3484-3600)
chain: PAQILISLESEERGELERILADLEEENRNLQAEYDRLKQQHEHKGLSPLPSPPEMMPTSPQSPRDAELIAEAKLLRQHKGRLEARMQILEDHNKQLESQLHRLRQLLEQPQAEAKVN

Source: article PMC1790709
